# Values from PubChem BioAssay AID1259308 (NCATS, 2017)
# Screen: 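Candidate targets for better recombinant protein yield in mammalian cells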 (primary screen)
# System: human HEK293 embryonic kidney cells stably expressing firefly luciferase (HEK-CMV-Luc2-Hygro)
# Knock-down reagent: single siRNA against human genes, 0.8 pmol siRNA per well
# Time to read-out: 72 h
# Detection: 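Reporter luminescence and viable-cell signal on separate replicate plates, given as percent of non-targeting control and median/MAD z-scores, plus per-cell luciferase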
# Scale: total luciferase, z-score and total luciferase, % of control: higher = more reporter protein produced; luciferase per cell, z-score: higher = more reporter output per viable cell
# Rule for the call: 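An siRNA counts as active if its total luciferase robust z-score exceeds 3; genes with two or more such siRNAs out of three were retested with fresh siRNAs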
# Meaning of the calls: active = raised luciferase; inactive = no rise
# Shown is a random part of about 59,000 reagents tested. Over the whole deposit, about 1,510 (2.6%) got an active call. 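Calls use total luciferase alone and ignore viability, so some active siRNAs may act by altering cell number.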 Reagents against one gene are numbered here. Further read-outs or replicates are left out here.
gene,siRNA no.,"total luciferase, z-score","total luciferase, % of control","luciferase per cell, z-score",activity call
EPHB4,1,1.1,104,0.694,inactive
EPHB4,2,-0.75,67,-0.585,inactive
EPHB4,3,-0.812,65.7,-1.02,inactive
PI4KB,1,-1.14,59.1,-0.995,inactive
PI4KB,2,-0.495,72,-0.133,inactive
PI4KB,3,2.79,137,1.51,inactive
LIMS2,1,1.45,111,1.31,inactive
LIMS2,2,-0.151,78.9,0.874,inactive
LIMS2,3,0.308,88,0.369,inactive
OR6Q1,1,-1.08,60.4,-1.12,inactive
OR6Q1,2,-1.11,59.7,-0.39,inactive
OR6Q1,3,-0.26,76.7,-0.341,inactive
ETFA,1,0.753,96.9,0.017,inactive
ETFA,2,-0.425,73.4,-1.12,inactive
ETFA,3,-0.179,78.3,-0.0692,inactive
TRMU,1,0.396,89.8,-0.015,inactive
TRMU,2,0.163,85.1,0.966,inactive
TRMU,3,0.942,101,1.24,inactive
VAV3,1,-2.48,32.5,-2.82,inactive
VAV3,2,1.45,111,1.08,inactive
VAV3,3,2.26,127,2.06,inactive
LRRC74B,1,-1.31,55.9,-0.946,inactive
LRRC74B,2,-0.225,77.4,-0.63,inactive
LRRC74B,3,0.603,93.9,0.328,inactive
ZFP62,1,2.06,123,1.65,inactive
ZFP62,2,-0.54,71.1,-0.738,inactive
ZFP62,3,0.421,90.3,0.255,inactive
DENND11,1,-0.223,77.5,-0.988,inactive
DENND11,2,-0.749,67,-0.56,inactive
DENND11,3,0.199,85.8,-0.0738,inactive
CPAMD8,1,-0.434,73.3,-0.36,inactive
CPAMD8,2,-1.66,48.9,-1.09,inactive
CPAMD8,3,-0.494,72.1,0.203,inactive
LAMA3,1,-0.16,78.7,0.0111,inactive
LAMA3,2,-1.38,54.5,-1.24,inactive
LAMA3,3,2.8,138,2.03,inactive
DCLRE1B,1,0.0254,82.4,-0.663,inactive
DCLRE1B,2,0.78,97.4,0.973,inactive
DCLRE1B,3,-0.223,77.5,0.383,inactive
PRR21,1,-1.18,58.4,0.754,inactive
PRR21,2,0.16,85.1,0.143,inactive
PRR21,3,2.55,133,1.7,inactive
WNT10A,1,0.436,90.6,-0.258,inactive
WNT10A,2,1.17,105,0.939,inactive
WNT10A,3,1.74,116,0.315,inactive
RPSAP47,1,-1.25,57.1,-0.541,inactive
RPSAP47,2,-2.38,34.5,-3.25,inactive
RPSAP47,3,-2.89,24.5,-2.56,inactive
CNTD1,1,-0.326,75.4,-0.0679,inactive
CNTD1,2,0.684,95.5,0.474,inactive
CNTD1,3,-1.55,51.1,-1.55,inactive
EPS8,1,0.679,95.4,-0.435,inactive
EPS8,2,1.57,113,1.37,inactive
EPS8,3,1.65,115,1.07,inactive
GGCT,1,0.425,90.3,0.161,inactive
GGCT,2,0.419,90.2,0.0859,inactive
GGCT,3,-0.566,70.6,-0.736,inactive
OR5T2,1,-1.2,58.1,-1.01,inactive
OR5T2,2,-0.912,63.7,-0.727,inactive
OR5T2,3,1.29,107,0.784,inactive
MROH2A,1,-0.113,79.6,-0.192,inactive
MROH2A,2,-0.0233,81.4,-0.188,inactive
MROH2A,3,-1.35,55.1,-0.928,inactive
RFNG,1,0.0996,83.9,0.385,inactive
RFNG,2,-0.654,68.9,-0.223,inactive
RFNG,3,-0.511,71.7,-0.668,inactive
MPHOSPH9,1,-0.189,78.1,-0.944,inactive
MPHOSPH9,2,0.503,91.9,0.513,inactive
MPHOSPH9,3,-1.19,58.1,-1.64,inactive
ARMC2,1,0.364,89.1,1.1,inactive
ARMC2,2,1.1,104,1.19,inactive
ARMC2,3,1.96,121,2.23,inactive
CDC40,1,1.18,105,1.32,inactive
CDC40,2,0.248,86.8,0.419,inactive
CDC40,3,2.4,130,2.89,inactive

In a second layout: 5 of the entries above.
| gene | siRNA no. | total luciferase, z-score | total luciferase, % of control | luciferase per cell, z-score | activity call |
| --- | --- | --- | --- | --- | --- |
| ZFP62 | 1 | 2.06 | 123 | 1.65 | inactive |
| ZFP62 | 2 | -0.54 | 71.1 | -0.738 | inactive |
| ZFP62 | 3 | 0.421 | 90.3 | 0.255 | inactive |
| DENND11 | 1 | -0.223 | 77.5 | -0.988 | inactive |
| DENND11 | 2 | -0.749 | 67 | -0.56 | inactive |
